Measurements as given in publication PMC4040925.
No constants are given. Whether binding was seen depends on the method and setting. Some entries that bind do so weakly or less than the wild type. Each block holds one binder with its values, some of them ahead of it.

Sequences of proteins named here, by UniProt entry; tags and fusion partners are left off. A change or cut given only in a name is not applied to a line headed by its entry. A line that says so, or that is headed by a name, gives the form on record, which may keep a tag or linker.
paxillin (P49023, form named): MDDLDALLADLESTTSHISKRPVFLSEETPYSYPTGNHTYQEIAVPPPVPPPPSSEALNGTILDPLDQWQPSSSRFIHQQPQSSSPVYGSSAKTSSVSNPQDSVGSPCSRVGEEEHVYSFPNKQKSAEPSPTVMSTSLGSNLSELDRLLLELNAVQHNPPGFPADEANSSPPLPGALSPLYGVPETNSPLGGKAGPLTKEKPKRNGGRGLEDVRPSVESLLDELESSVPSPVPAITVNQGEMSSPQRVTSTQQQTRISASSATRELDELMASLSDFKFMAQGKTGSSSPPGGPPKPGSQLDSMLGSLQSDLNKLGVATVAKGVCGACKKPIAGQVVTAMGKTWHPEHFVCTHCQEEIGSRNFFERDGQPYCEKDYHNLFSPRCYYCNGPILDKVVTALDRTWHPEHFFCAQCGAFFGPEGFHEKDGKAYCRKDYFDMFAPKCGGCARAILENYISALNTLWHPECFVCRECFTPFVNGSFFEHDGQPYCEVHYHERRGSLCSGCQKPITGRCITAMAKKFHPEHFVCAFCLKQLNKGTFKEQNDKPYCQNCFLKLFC

Legend:
[1] = biological target: T1, p130CAS (UniProt P56945); assay: fluorescence cross-correlation spectroscopy (FCCS); cytosol of live REF52 cells co-expressing one protein tagged with meGFP and the other with TDmKate2; 37°C; association score against the negative control meGFP + TDmKate2 (Fisher's exact test, p-value <0.0001); apparent Ka
T1 sequence: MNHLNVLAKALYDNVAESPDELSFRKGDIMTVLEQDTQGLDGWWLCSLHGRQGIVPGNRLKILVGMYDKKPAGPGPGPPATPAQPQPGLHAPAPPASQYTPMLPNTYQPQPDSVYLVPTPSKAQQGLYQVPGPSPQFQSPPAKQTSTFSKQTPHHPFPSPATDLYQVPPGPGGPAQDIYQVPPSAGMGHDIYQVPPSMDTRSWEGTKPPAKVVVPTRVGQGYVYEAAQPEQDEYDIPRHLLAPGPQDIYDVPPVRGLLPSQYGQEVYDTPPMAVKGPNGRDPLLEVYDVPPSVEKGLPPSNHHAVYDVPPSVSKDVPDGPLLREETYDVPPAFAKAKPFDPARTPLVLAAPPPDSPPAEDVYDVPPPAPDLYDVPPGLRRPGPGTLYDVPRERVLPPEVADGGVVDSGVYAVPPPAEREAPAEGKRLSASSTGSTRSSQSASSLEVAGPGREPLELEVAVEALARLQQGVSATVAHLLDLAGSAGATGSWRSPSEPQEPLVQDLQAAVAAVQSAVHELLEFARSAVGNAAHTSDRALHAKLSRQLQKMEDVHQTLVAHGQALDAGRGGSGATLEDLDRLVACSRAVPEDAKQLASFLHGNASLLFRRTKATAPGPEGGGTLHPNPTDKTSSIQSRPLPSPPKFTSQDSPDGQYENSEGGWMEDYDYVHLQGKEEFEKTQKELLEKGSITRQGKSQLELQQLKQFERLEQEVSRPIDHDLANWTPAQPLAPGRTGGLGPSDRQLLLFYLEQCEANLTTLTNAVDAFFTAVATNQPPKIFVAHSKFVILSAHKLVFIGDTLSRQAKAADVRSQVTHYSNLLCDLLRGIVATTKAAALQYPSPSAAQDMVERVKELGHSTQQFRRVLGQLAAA

[2] = biological target: FAK (human (HeLa cDNA)), Q05397; assay: fluorescence cross-correlation spectroscopy (FCCS); cytosol of live NIH3T3 cells co-expressing one protein tagged with meGFP and the other with TDmKate2; 37°C; association score against the negative control (p-value <0.02); details: remark: other sources report otherwise
[3] = biological target: FAK (human (HeLa cDNA)), Q05397; assay: fluorescence cross-correlation spectroscopy (FCCS); cytosol of live REF52 cells co-expressing one protein tagged with meGFP and the other with TDmKate2; 37°C; association score against the negative control meGFP + TDmKate2 (Fisher's exact test, p-value <0.0001); apparent Ka; details: remark: other sources report otherwise
[4] = biological target: paxillin (UniProt P49023); assay: fluorescence cross-correlation spectroscopy (FCCS); cytosol of live NIH3T3 cells co-expressing one protein tagged with meGFP and the other with TDmKate2; 37°C; association score against the negative control (p-value <0.02)
[5] = biological target: paxillin (UniProt P49023); assay: fluorescence cross-correlation spectroscopy (FCCS); cytosol of live REF52 cells co-expressing one protein tagged with meGFP and the other with TDmKate2; 37°C; association score against the negative control meGFP + TDmKate2 (Fisher's exact test, p-value <0.0001); apparent Ka

- binding [1]: binds
B1: zyxin (protein, UniProt Q15942 1-572)
chain: MAAPRPSPAISVSVSAPAFYAPQKKFGPVVAPKPKVNPFRPGDSEPPPAPGAQRAQMGRVGEIPPPPPEDFPLPPPPLAGDGDDAEGALGGAFPPPPPPIEESFPPAPLEEEIFPSPPPPPEEEGGPEAPIPPPPQPREKVSSIDLEIDSLSSLLDDMTKNDPFKARVSSGYVPPPVATPFSSKSSTKPAAGGTAPLPPWKSPSSSQPLPQVPAPAQSQTQFHVQPQPQPKPQVQLHVQSQTQPVSLANTQPRGPPASSPAPAPKFSPVTPKFTPVASKFSPGAPGGSGSQPNQKLGHPEALSAGTGSPQPPSFTYAQQREKPRVQEKQHPVPPPAQNQNQVRSPGAPGPLTLKEVEELEQLTQQLMQDMEHPQRQNVAVNELCGRCHQPLARAQPAVRALGQLFHIACFTCHQCAQQLQGQQFYSLEGAPYCEGCYTDTLEKCNTCGEPITDRMLRATGKAYHPHCFTCVVCARPLEGTSFIVDQANRPHCVPDYHKQYAPRCSVCSEPIMPEPGRDETVRVVALDKNFHMKCYKCEDCGKPLSIEADDNGCFPLDGHVLCRKCHTARAQT

- binding [2]: binds
- binding [3]: binds
B2: p130CAS, P56945 1-870 (protein)
chain: T1 sequence

- binding [4]: binds
- binding [5]: binds
B3: p130CAS (protein, UniProt P56945 1-870)
chain: T1 sequence
